No constants are given. Whether binding was seen depends on the method and setting. In cells and extracts the contact can be indirect. Binding can be weak; no strength is given.
Target: HA-tagged LRP10^2DXXAA (LRP10 double DXXLL trafficking mutant) (human) (UniProt Q7Z4F1)
Test: co-IP; lysates of transfected HEK cells (both partners co-expressed, or LRP10-HA alone with endogenous APP); 50 mM Tris pH 7.4, 150 mM NaCl, 1% NP-40; precipitation with anti-HA, anti-APP or anti-FLAG overnight at 4°C, protein A- or G-Sepharose; immunoblot

The chains behind the UniProt entries cited, without tags or fusion partners. Where a name states a change or a piece, a line headed by the entry shows the natural chain unless it says otherwise.
UniProt Q7Z4F1: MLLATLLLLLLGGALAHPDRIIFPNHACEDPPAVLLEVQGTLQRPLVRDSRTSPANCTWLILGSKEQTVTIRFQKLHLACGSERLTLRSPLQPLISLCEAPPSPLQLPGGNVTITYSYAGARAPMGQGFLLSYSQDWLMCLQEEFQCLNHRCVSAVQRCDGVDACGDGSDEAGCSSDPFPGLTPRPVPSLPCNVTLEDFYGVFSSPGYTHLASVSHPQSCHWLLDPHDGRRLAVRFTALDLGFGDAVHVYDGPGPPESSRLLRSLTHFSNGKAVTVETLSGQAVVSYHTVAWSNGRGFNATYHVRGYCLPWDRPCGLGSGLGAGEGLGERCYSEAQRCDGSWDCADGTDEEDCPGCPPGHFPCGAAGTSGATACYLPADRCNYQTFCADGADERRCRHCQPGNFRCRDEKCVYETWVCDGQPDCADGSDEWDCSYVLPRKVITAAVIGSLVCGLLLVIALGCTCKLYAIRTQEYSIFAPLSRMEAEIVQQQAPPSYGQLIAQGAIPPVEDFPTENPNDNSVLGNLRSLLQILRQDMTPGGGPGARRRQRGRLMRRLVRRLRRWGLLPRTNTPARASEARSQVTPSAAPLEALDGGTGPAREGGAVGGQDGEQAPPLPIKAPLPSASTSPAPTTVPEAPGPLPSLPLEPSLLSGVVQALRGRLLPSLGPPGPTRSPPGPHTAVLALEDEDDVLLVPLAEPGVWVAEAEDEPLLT

untagged APP695 (from UniProt P05067-4 18-695)
binding: binds
